Assay results published in PubChem BioAssay AID1347423 (Functional Genomics Laboratory (NCATS/FGL), 2020).
Out of some 52,000 sequences screened, about 210 (0.4%) were called active.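 The calls were made as follows: active = gene whose silencing raises cell survival under the drug, median off-target-corrected z-score across its silencing RNAs 2 or more; inactive = the rest.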 Some of the results follow.

Experiment: Resistance to Poly (ADP-Ribose) Polymerase inhibitor: Gene Identification via Genome-wide siRNA Screen
Conditions: mouse BRCA2 R2336H ES cells, olaparib, CellTiter-Glo viability; stronger effect = higher value
Summary of the method: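 Genome-wide siRNA screen (3 siRNAs/gene, 20 nM) in mouse ES cells carrying hypomorphic BRCA2 R2336H; olaparib 500 nM added 48 h post-transfection, CellTiter-Glo viability 72 h later. Normalized to plate-median negative control; MAD z-scores, gene median, seed-adjusted.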

Sequence	z-score
GGAGCUAGAACAGUUUGCCTT against Pou5f1	inactive: -1.64
CGGUUAGAGCAUUAAGUUCTT against Lias	inactive: 0.279
GUUUAUAGGUAACUGUCACTT against Defb11	inactive: -0.067
GGAGACCUUCAACUUGUACTT against Ephb1	inactive: 0.473
GCACAUGUGUUUAUACAUUTT against Sfxn3	inactive: -2.07
GCACAGACUGAGAGGAAAATT against Mog	inactive: 0.461
GCAGUGCCUGCAGAUUCUUTT against 1110061N23Rik	inactive: 1.53
GGGAGUAAAAAGGUGAUCATT against Gfra2	inactive: -0.153
GGAUACUCUCAGGACGUGATT against Ncbp2	inactive: 3.82
GGUGGUCCGUAAAGUGGUUTT against Slc25a15	inactive: 1.71
GCAACUGCUUCUAAUAAGATT against Leprel2	inactive: 0.0379
CGUGGAUAUCAGAAAGCAATT against Cfhrb_4/2	inactive: -1.04
GGGUCUCAUGAAGAAAUUUTT against 0610009F02Rik	inactive: 0.171
GGACCAGAUUCACCAUAUUTT against Ifi44	inactive: -1.17
GUGGAAAUUAAUCUGGGUUTT against MNCb-4137	inactive: 0.244
GCCAUGAUGUAGAGGUAGGTT against 2310012P17Rik	inactive: 0.797
GGGAACUCCACUAAGGAAATT against Slc26a1	inactive: 0.216
GGUUUGUCAUUUCCUGCCCTT against Ian4	inactive: 0.98
CGGAAAACAUUGGACUCCCTT against 1700019I23Rik	inactive: -1.24
GGCUGUCAUGGGUGAAUCCTT against Sprr2e	inactive: 0.966
GGAGAAAAGUCUACAGAAATT against Areg	inactive: -0.69
GGAGUAAACCUACUGCUCATT against Esam1	inactive: 1.14
GGAAAAUAAAAUUGCAUGCTT against Oas1d	inactive: 1.04

Sequence	z-score
GCUUAAUCAACUGGUACUATT against Olfr19	inactive: -0.0443
GGUACAGGGAAGGAUCGUGTT against Zfp469	inactive: 1.51
GGCCCUUUCUGUCACUUAGTT against Mylc2b	inactive: -2.22
GGAAGAUGUGAAGAUUUAATT against Acvr1b	inactive: 1.47
GGCCAUUUUUGAAAGCUAATT against Dcdc2	inactive: 2.17
GGCCCUGAGAAACUAUAGGTT against Myh1	inactive: 0.912
GCAUUAGUGGCAGAACUUUTT against Gcet2	inactive: 1.88
GGCAUUCAGAACUUACUAUTT against Ofd1	inactive: 0.67
GGCCGGGAAGAAAGAGAAATT against Ptn	inactive: -2.1
CGGUUCCACUUCAAAUGACTT against Hsd17b2	inactive: -0.774
CGAAGCUGCAAAGGAGAAGTT against Igf1	inactive: -0.732
GCCGUUCAAAAAUUUGUCCTT against Cyp11b2	inactive: 1.26
GUGGUUGAACGGGAAUUUGTT against LOC433719	inactive: 1
GGGUAUGCUCAUCAUGCUGTT against 4732482E20Rik	inactive: -0.235
GGUGUUUCGUCUACCCUUCTT against Olfr370	inactive: 0.396
CGACAUAAAGGCUUGUCAATT against Rabl3	inactive: 1.66
GCACCUAGAUUGAUCAUAGTT against Olfr1183	inactive: -2.32
GCAUUUCGUCAGGGCAAAATT against Fuca1	inactive: 0.193
GGAAGAAGAAAGAUCCAACTT against Tpt1h	inactive: 0.335
GGACUCACGUCAAGAUGUUTT against 2610318C08Rik	inactive: -1.33
GCCUUAAAAGACCUGACGUTT against Abca8b	inactive: 3.17
GGUGACAGUACAGAAAAGUTT against 2410006N06Rik	inactive: 0.0931
GGGCUUUGAGCGUGAGUACTT against Adcy7	inactive: -0.354

Sequence	z-score
GGACUCAAACGACACAUGCTT against Peci	inactive: 1.44
GGUACUUCUUCCUUGCUCATT against Itm2c	inactive: -0.243
GAAGUUACAGUGAAGUCUCTT against Zfp395	inactive: -1.52
GGGAAGGUCACCGUCAAGUTT against Ppp1r14b	inactive: 0.437
CGAACCCUGAAAGAACAUATT against AI315119	inactive: -0.986
GGUGAUGACCAACUCAGUGTT against Prcc	inactive: 0.428
GGACAUCAUGGACCUGAAGTT against 2900011O08Rik	inactive: -2.75
GCCGAUGAUGAGAAACGACTT against Cd2	inactive: 0.716
GGUGACCACUUCAUGUCACTT against 2900055D14Rik	inactive: 1.02
GGAUUGACUUCAUGGAUAUTT against Btc	inactive: -1.27
CCUACGAGGAUUAUGUUGATT against Myl6	inactive: 0.727
GGCUUAGUAUGUUGUAUUCTT against 2010107G23Rik	inactive: 0.165
CUUUAGACUUCAUGCUCUCTT against Olfr128	inactive: 0.719
GCAUUUGAUGAAGACUCGATT against Barx2	inactive: 0.0506
GCAAGUCAAGUGGGCCAAATT against G430095P16Rik	inactive: 0.121
CCAAGGUGCUGUUGGUAUATT against Ssr2	inactive: -0.217
GGCAACAUAGUAAUUGUGGTT against Olfr1223	inactive: -0.067
GGAAGAUGAGUUUCAUAAUTT against Htra3	inactive: 0.765
GGUAUACGCUCUCGUAUUGTT against Rbbp9	inactive: -0.23
GCCCAGAAAUAUAAUCAAATT against Bub1	inactive: 0.0523
GGCAUUCACUAACCAGUUATT against Nfyb	inactive: -0.779

Exported in CSV form: part of the list above
Sequence,z-score
GGUACUUCUUCCUUGCUCATT against Itm2c,inactive: -0.243
GGACAUCAUGGACCUGAAGTT against 2900011O08Rik,inactive: -2.75
GGUGACCACUUCAUGUCACTT against 2900055D14Rik,inactive: 1.02
GGAAGAUGAGUUUCAUAAUTT against Htra3,inactive: 0.765
GCCCAGAAAUAUAAUCAAATT against Bub1,inactive: 0.0523
GGCAUUCACUAACCAGUUATT against Nfyb,inactive: -0.779
